Experimental data taken from publication PMC4578947.
No constants are given. Whether binding was seen depends on the method and setting. A result given as binding can be weak or reduced; the word gives no strength. For part of these data: Where a sequence is shown, tags or fusion partners need not be part of it. For part of these data: In cells and extracts the contact can be indirect.

T1: RAB-10(Q68L), fusion to the DNA-binding domain of LexA (bait) (C. elegans) (UniProt Q94148)
T1 sequence: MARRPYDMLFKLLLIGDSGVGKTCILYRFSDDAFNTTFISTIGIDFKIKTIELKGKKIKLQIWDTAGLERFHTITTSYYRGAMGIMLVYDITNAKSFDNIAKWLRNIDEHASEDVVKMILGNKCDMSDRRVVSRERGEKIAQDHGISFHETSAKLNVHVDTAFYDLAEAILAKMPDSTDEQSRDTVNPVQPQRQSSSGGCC

B1: HA-tagged RAB-10(Q68L) (protein, UniProt Q94148 1-201)
chain: T1 sequence

These molecules were tested against AMPH-1 SH3 domain (bait) (C. elegans) (UniProt Q21004) (assay: two-hybrid; DupLEX-A system, yeast EGY48; bait fused to LexA DNA-binding domain, prey fused to B42 activation domain; LEU2 growth assay (and β-galactosidase reporter), galactose/raffinose, 30°C, 3 days).
For “Full-length TBC-2, fusion to the B42 transcriptional activation domain (prey) (from UniProt Q23419)”, the binding was “binds”.

What follows are molecules tested against T1, RAB-10(Q68L), fusion to the DNA-binding domain of LexA (bait) (C. elegans) in the same assay as above.
“TBC-2(R155A), fusion to the B42 transcriptional activation domain (prey) (C. elegans)” was tested, and the binding was “binds”. “TBC-2 (QRNNE 288–292 AAAAA) (C. elegans)” was tested, and the binding was “no binding”. For “TBC-2(P150A), fusion to the B42 transcriptional activation domain (prey) (C. elegans)”, the binding was “binds”. In the case of “Full-length TBC-2, fusion to the B42 transcriptional activation domain (prey) (from UniProt Q23419)”, the binding is reported as “binds”. With “TBC-2 with alanine substitutions at positions aa294-298 (C. elegans)” the binding was “no binding”. “TBC-2(P153A), fusion to the B42 transcriptional activation domain (prey) (C. elegans)” was tested, and the binding was “binds”. In the case of “TBC-2 with alanine substitutions at positions aa283-287 (C. elegans)”, the binding is reported as “no binding”.

Each molecule was assayed against full length GST-AMPH-1 (C. elegans) (assay: pull-down; Glutathione beads loaded with recombinant GST-AMPH-1 incubated with in vitro-translated HA-RAB-10(Q68L) and/or FLAG-TBC-2; western blot with anti-HA and anti-FLAG; only the target purified).
B1 was tested, and the binding was “binds”.
